Test results reported in PubChem BioAssay (EPA / NIEHS).
This list was built around the results that the source calls inconclusive (neither active nor inactive); the mix of calls is not that of the screen. Potencies beside an inconclusive call are fits to weak or partial responses and may not hold up. The source made the active and inactive calls. How the source made its calls: active means hit-call score of the fitted dose curve at least 0.9, where 1 is the maximum; inconclusive means response in the unintended direction; inactive means score below 0.9.

Experiment: Tanguay_ZF_120hpf_PIG_legacy: (Legacy) Oregon State University Tanguay Lab 120 Hour Post-fertilization zebrafish Assay for Pigmentation Malformation (AID 2283650);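 further: dechorionated Tropical 5D zebrafish embryos exposed singly from 6 to 120 hpf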
Description: Tanguay_ZF_120hpf_legacy is a whole embryo, multiplexed endpoint assay using zebrafish larvae exposed for 120 hours post fertilization on a 96-well plate.Tanguay_ZF_120hpf_PIG_legacy is one of one assay component(s) measured or calculated from the Tanguay_ZF_120hpf_legacy assay. It is designed to make measurements of zebrafish development as detected with brightfield microscopy of developing zebrafish embryos.Data from the assay component Tanguay_ZF_120hpf_PIG_legacy was analyzed into 1 assay endpoints. This assay endpoint, Tanguay_ZF_120hpf_PIG_legacy, was analyzed in the positive analysis fitting direction relative to DMSO as the negative control and baseline of activity. Using a type of morphology reporter, gain-of-signal activity can be used to understand changes in developmentals as they relate to the whole embryo. To generalize the intended target to other relatable targets, this assay endpoint is annotated to the zebrafish development intended target family, where the subfamily is embryonic pigmentation.
Zebrafish husbandry: Tropical 5D wild-type adult zebrafish were housed in at an approximate density of 1000 per 100 gallon tank at the Sinnhuber Aquatic Research Laboratory, Oregon State University, Corvallis, OR. Each tank was kept at standard laboratory conditions of 28C on a 14-h light/10-h dark photoperiod in fish water consisting of reverse osmosis water supplemented with a commercially available salt (Instant Ocean). Spawning funnels were placed into the tanks the night prior, and embryos were collected and staged. To increase bioavailability, the chorion was enzymatically removed using pronase (63.6mg/ml, >/= 3.5U/mg, Sigma-Aldrich: P5147) at 4 hours post fertilization (hpf) using a custom automated dechorionator.Chemical exposures: Six hpf dechorionated embryos were placed 1 embryo per well in a 96-well plate prefilled with 90 ul of EM using automated embryo placement systems (AEPS). Ten microliters of each row of dilution plate 2 was added to 2 exposure plates. The final DMSO concentration used was 0.64% (vol/vol). Thirty-two embryos were also exposed to 5uM trimethyltin chloride (positive control). Plates were sealed to prevent evaporation and foil covered to reduce light exposure and kept in a 28C incubator. Embryos were statically exposed until 120 hpf. At 24 hpf, embryos were assessed for photomotor response using a custom photomotor response analysis tool (PRAT) and for developmental toxicity endpoints (MO24: mortality at 24 hpf, DP: developmental progression, SM: spontaneous movement, and NC: notochord distortion). At 120 hpf, locomotor activity was measured using Viewpoint Zebralab and assessed for 18 endpoints. Zebrafish acquisition and analysis program (ZAAP), a custom program designed to inventory, acquire, and manage zebrafish data, was used to collect developmental endpoints as either present or absent (i.e., binary responses were recorded). If mortality occurred for an embryo (at either 24 or 120 hpf), the non-mortality endpoints were not measured.

| Structure (SMILES) | outcome | AC50 |
| --- | --- | --- |
| O=C(O)c1cc(N=Nc2ccc(S(=O)(=O)Nc3ccccn3)cc2)ccc1O | inactive |  |
| Cc1cc(NC(=O)C(=O)O)cc(C)c1Oc1ccc(O)c2c1CCC2 |  | active: 0.00339 µM |
| O=C(O)CC(O)C(=O)O (centres undefined) | inactive |  |
| O=C(O)c1cccc(C[C@@H]2COc3ccc(OCc4nc5cc(F)ccc5s4)cc3[C@@H]2O)c1 |  | inconclusive: 0.00791 µM |
| Oc1ccc(C(c2ccc(O)cc2)C(Cl)(Cl)Cl)cc1 |  | active: 202 µM |
| CC[C@H](C)C(=O)O[C@H]1C[C@H](O)C=C2C=C[C@H](C)[C@H](CC[C@@H](O)C[C@@H](O)CC(=O)O)[C@H]21 |  | inconclusive: 202 µM |
| CC(=O)[C@@]1(O)CC[C@H]2[C@@H]3CCC4=CC(=O)CC[C@]4(C)[C@H]3CC[C@@]21C |  | inconclusive: 3.18 µM |
| CCCCC=O |  | inconclusive: 22.7 µM |
| CC/C(=C(/CC)c1ccc(O)cc1)c1ccc(O)cc1 |  | inconclusive: 2.52 µM |
| Oc1ccc2ccccc2c1 |  | active: 12.9 µM |
| CC(=O)O[C@]1(C(C)=O)CC[C@H]2[C@@H]3C=C(Cl)C4=CC(=O)[C@@H]5C[C@@H]5[C@]4(C)[C@H]3CC[C@@]21C | inactive |  |
| CCCCC(CC)COC(=O)CCCCCCCC(=O)OCC(CC)CCCC (centres undefined) | inactive |  |
| CCCC(=O)O |  | inconclusive: 50.1 µM |
| COc1cc(C=O)ccc1O |  | active: 45.9 µM |
| COC(=O)[C@H]1[C@H]2C[C@@H]3c4[nH]c5cc(OC)ccc5c4CCN3C[C@H]2C[C@@H](OC(=O)c2cc(OC)c(OC)c(OC)c2)[C@@H]1OC |  | inconclusive: 56.5 µM |
| COc1ccc(/C=C/S(=O)(=O)NC(=O)c2ccc(C)cc2Cl)cc1 |  | inconclusive: 42.3 µM |
| CC(=O)OCC(COC(C)=O)OC(C)=O | inactive |  |

| Structure (SMILES) | outcome | AC50 |
| --- | --- | --- |
| S=c1[nH]c2ccccc2s1 |  | active: 39.6 µM |
| CCCCCCCCCCCCCCO |  | inconclusive: 88.7 µM |
| Cc1cn([C@H]2C=C[C@@H](CO)O2)c(=O)[nH]c1=O |  | inconclusive: 29.9 µM |
| Cc1cc(SC2=C(O)C[C@@](CCc3ccc(N)cc3)(C(C)C)OC2=O)c(C(C)(C)C)cc1CO |  | inconclusive: 202 µM |
| O=C1OC(=O)C2C3C=CC(C3)C12 (centres undefined) |  | inconclusive: 34.7 µM |
| CCCCCC(=O)O | inactive |  |
| CC(C)c1cccc(C(C)C)c1N1C(=O)c2ccc(O)cc2C1=O |  | inconclusive: 5.29 µM |
| CC(=O)S[C@H](C(=O)N[C@H]1Cc2ccccc2[C@H]2CCC[C@@H](C(=O)O)N2C1=O)C(C)C |  | inconclusive: 27.6 µM |
| C=CCc1ccc(OC)c(OC)c1 | inactive |  |
| CCCCC(CC)COC(=O)c1ccc(C(=O)OCC(CC)CCCC)cc1 (centres undefined) | inactive |  |
| CN1C(=O)N(c2ccccc2Br)Cc2cnc(Nc3ccc4c(c3)OCC(CO)O4)nc21 (centres undefined) |  | active: 49.7 µM |
| CCCCCCC(C)OC(=O)COc1nc(F)c(Cl)c(N)c1Cl (centres undefined) |  | inconclusive: 28.7 µM |
| O=C(O)CCN(C1(C(=O)NO)CCCC1)S(=O)(=O)c1ccc(Oc2ccc(F)cc2)cc1 |  | inconclusive: 17.3 µM |
| CCOCCOCCO | inactive |  |
| OCCNCCO | inactive |  |
| CCCCCCCCCC | inactive |  |
| COc1cc2c(c(OC)c1OC)-c1ccc(OC)c(=O)cc1[C@@H](NC(C)=O)CC2 |  | active: 22.8 µM |

Of the compounds above, 2 have four or more nitrogen atoms:

| Structure (SMILES) | outcome | AC50 |
| --- | --- | --- |
| O=C(O)c1cc(N=Nc2ccc(S(=O)(=O)Nc3ccccn3)cc2)ccc1O | inactive |  |
| CN1C(=O)N(c2ccccc2Br)Cc2cnc(Nc3ccc4c(c3)OCC(CO)O4)nc21 (centres undefined) |  | active: 49.7 µM |
